# According to the supplement of paper PMC6411743:
# The chains behind the UniProt entries cited, without tags or fusion partners. Where a name states a change or a piece, a line headed by the entry shows the natural chain unless it says otherwise.
# UniProt O14949: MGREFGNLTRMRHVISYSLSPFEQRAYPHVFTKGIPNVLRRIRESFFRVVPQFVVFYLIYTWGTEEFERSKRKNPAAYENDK
# UniProt O00425, whole entry: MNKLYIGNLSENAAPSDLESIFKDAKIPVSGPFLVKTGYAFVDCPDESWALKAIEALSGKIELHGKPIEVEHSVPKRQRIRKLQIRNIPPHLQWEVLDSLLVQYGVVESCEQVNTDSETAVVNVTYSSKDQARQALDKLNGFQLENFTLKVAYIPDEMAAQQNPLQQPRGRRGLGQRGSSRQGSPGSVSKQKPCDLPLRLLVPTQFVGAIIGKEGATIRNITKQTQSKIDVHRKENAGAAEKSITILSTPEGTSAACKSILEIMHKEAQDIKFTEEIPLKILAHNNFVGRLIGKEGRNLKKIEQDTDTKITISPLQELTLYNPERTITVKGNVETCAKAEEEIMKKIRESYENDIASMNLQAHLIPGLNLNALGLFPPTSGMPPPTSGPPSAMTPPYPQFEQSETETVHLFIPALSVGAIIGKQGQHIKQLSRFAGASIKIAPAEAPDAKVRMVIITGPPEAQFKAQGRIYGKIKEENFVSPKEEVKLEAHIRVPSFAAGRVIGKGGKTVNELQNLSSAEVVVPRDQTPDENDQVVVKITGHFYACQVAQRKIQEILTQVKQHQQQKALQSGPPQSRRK
# UniProt O15118: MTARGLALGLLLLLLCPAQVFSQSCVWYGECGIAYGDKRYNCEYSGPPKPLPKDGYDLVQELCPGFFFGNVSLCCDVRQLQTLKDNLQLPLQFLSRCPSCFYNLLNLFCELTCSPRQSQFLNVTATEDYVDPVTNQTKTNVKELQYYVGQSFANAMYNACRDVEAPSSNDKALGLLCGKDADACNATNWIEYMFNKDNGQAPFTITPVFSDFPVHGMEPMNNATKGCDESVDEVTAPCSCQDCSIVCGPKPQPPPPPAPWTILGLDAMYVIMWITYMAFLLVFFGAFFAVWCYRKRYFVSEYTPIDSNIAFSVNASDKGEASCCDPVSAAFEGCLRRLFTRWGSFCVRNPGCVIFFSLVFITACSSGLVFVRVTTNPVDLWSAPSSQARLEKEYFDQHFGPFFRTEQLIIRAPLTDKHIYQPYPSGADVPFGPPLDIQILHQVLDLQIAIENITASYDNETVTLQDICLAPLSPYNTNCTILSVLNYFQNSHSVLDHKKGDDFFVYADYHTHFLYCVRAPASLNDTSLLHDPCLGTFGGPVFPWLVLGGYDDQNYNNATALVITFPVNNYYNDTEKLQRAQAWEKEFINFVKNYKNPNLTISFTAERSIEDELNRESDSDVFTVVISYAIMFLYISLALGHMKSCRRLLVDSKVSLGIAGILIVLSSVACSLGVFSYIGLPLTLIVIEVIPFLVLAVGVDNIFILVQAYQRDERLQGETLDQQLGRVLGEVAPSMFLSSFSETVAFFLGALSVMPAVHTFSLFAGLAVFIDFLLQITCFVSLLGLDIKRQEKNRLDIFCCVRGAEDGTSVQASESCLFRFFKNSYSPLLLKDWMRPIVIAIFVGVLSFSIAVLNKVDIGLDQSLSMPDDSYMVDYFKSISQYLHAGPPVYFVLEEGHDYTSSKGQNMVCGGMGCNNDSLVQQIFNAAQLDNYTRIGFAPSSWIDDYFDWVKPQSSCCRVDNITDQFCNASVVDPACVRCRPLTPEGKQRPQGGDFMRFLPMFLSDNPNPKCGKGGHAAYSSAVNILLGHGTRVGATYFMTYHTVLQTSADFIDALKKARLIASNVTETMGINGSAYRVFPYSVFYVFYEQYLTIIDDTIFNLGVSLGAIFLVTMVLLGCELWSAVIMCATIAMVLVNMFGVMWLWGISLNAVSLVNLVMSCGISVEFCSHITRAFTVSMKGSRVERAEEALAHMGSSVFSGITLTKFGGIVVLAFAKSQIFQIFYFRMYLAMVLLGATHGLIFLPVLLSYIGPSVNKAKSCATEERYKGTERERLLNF
# UniProt Q96CP6, whole entry: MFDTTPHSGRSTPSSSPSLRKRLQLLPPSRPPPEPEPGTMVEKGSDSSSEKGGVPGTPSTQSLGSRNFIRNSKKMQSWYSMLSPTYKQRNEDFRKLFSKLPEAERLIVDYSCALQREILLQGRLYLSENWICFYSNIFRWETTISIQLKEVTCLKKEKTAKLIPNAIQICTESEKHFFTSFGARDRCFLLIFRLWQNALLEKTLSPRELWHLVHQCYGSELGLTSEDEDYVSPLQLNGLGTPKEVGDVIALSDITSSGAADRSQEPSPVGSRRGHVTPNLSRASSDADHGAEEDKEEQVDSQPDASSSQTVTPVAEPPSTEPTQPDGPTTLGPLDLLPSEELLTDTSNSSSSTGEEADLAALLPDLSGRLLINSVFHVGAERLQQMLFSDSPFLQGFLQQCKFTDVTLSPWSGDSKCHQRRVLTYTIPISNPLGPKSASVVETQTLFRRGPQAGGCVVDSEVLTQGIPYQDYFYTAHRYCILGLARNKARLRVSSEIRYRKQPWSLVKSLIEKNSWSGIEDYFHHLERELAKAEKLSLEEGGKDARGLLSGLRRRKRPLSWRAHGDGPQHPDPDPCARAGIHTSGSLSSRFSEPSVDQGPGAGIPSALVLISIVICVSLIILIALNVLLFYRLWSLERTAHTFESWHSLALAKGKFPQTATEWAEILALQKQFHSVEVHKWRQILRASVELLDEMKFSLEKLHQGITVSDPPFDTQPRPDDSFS
# UniProt O15371, whole entry: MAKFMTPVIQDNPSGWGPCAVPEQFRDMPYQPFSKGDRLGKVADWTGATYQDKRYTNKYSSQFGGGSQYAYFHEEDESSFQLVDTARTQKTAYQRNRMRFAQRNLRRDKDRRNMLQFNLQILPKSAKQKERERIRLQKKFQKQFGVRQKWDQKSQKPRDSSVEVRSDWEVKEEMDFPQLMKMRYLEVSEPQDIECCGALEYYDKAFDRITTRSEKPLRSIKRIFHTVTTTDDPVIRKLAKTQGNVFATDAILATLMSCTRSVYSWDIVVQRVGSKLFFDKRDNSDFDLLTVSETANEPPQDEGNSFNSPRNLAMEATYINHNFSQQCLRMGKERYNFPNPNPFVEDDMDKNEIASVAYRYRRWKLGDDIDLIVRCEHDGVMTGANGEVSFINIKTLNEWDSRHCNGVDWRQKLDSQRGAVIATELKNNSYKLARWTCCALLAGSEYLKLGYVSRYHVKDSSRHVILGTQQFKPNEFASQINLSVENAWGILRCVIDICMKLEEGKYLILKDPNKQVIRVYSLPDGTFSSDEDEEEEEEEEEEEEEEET
# UniProt O43829: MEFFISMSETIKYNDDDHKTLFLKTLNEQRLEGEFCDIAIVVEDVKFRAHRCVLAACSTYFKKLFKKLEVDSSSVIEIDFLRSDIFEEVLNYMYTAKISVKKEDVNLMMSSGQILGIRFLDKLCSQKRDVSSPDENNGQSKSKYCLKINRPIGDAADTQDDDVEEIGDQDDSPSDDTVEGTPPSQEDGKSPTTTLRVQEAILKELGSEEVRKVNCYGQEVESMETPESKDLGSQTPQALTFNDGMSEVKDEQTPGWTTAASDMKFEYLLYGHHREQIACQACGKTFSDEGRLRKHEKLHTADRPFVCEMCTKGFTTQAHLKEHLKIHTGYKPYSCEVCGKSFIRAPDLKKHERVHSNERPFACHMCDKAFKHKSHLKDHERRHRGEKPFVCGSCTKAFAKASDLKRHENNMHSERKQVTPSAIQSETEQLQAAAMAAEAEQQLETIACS
# UniProt O00203: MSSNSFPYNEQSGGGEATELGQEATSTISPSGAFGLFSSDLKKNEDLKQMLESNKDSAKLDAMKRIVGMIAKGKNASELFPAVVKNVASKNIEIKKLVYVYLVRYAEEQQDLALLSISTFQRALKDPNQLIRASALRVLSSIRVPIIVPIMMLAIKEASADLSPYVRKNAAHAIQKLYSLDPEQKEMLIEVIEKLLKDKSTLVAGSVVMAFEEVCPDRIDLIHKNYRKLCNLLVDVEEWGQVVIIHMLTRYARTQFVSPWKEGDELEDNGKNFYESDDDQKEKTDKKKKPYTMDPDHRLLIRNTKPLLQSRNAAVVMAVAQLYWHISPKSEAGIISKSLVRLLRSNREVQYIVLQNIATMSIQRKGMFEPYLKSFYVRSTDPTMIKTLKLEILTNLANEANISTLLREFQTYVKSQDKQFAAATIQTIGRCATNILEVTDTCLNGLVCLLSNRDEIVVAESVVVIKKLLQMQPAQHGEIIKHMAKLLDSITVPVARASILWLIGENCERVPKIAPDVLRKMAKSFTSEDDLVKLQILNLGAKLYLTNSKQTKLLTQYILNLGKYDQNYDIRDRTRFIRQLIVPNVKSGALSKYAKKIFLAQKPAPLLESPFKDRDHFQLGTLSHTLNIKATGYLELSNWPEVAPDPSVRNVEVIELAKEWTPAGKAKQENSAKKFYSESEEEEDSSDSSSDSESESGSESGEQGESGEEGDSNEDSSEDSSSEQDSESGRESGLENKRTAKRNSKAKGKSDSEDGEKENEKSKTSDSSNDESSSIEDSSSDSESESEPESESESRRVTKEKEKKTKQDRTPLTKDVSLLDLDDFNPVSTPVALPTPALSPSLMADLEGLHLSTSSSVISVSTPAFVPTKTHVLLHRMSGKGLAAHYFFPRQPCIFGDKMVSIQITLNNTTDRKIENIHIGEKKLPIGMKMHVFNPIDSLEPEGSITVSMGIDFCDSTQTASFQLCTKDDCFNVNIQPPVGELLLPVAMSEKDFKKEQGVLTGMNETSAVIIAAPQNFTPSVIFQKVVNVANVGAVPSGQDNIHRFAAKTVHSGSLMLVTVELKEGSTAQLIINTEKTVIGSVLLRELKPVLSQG
# UniProt O43181, whole entry: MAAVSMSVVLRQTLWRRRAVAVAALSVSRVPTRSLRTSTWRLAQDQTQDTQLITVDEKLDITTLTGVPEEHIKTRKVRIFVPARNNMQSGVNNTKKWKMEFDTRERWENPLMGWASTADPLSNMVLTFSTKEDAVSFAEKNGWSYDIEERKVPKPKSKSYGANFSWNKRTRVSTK
# UniProt O00767: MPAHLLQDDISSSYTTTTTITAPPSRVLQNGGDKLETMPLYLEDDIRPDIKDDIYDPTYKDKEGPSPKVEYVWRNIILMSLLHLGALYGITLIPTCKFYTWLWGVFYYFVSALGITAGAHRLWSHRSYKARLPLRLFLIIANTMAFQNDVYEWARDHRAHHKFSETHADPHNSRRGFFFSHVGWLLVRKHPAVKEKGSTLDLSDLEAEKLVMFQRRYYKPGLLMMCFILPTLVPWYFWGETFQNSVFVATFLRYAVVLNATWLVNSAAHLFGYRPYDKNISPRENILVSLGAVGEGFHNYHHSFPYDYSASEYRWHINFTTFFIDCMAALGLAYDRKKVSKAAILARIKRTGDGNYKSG
# UniProt O43164: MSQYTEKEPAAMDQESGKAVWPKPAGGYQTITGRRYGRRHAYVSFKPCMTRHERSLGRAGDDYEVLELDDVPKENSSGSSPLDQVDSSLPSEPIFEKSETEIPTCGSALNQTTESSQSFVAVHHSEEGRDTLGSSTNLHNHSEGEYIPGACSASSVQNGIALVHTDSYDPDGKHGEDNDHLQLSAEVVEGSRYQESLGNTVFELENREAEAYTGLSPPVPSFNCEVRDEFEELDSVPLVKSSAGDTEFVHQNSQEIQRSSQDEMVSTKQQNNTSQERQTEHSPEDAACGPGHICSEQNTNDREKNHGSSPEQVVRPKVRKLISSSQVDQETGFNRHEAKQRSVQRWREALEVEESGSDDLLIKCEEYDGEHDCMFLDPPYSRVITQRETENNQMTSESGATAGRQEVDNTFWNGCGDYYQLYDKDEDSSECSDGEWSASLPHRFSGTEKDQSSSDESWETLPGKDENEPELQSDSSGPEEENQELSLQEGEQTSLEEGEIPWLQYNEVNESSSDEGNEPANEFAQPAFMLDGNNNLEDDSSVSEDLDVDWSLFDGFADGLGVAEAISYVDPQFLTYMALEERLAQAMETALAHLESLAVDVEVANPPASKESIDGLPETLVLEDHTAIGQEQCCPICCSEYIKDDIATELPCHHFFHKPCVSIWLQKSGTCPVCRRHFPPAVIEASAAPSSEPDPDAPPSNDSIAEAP
# UniProt O00463: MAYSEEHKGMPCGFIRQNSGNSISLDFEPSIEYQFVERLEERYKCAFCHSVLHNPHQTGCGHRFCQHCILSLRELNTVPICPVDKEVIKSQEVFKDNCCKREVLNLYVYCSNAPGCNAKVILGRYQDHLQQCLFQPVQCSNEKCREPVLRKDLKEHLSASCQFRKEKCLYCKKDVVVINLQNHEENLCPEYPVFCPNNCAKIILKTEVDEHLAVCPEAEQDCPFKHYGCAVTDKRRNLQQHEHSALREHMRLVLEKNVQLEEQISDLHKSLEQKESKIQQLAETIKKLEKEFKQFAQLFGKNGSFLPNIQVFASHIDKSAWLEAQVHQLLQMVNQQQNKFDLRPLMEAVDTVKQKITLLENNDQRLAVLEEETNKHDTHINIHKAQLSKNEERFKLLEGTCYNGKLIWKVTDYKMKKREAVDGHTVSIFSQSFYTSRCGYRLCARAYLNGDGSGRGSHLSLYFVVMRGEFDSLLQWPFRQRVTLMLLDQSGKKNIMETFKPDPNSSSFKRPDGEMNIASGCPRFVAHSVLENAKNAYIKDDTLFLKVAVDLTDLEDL
# ± gives the standard deviation of the averaged measurements. The entries are a selection whose mix differs from that of the whole data set.
# Compound: Nc1ncnc2c1ncn2[C@@H]1O[C@H](COP(=O)(O)OP(=O)(O)OP(=O)(O)O)[C@@H](O)[C@H]1O [adenosine triphosphate]
# Experiment: NP40-soluble protein abundance relative to vehicle (solubility fold change) (ratio); higher = more soluble protein in presence of ATP
# How it was run: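 Jurkat crude lysate prepared with a Dounce homogeniser was treated at eight concentrations spanning 0.1 to 10 mM, 10 min at room temperature then 3 min at 37 °C. Solubilisation with 0.8% NP40 and benzonase and ultracentrifugation preceded TMT labelling of the supernatant for LC-MS/MS. Fold change against the detergent-processed vehicle was determined per replicate from vsn-normalised intensities, across three independent experiments.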
Target,NP40-soluble protein abundance (concentration: 1mM),NP40-soluble protein abundance (concentration: 2mM),NP40-soluble protein abundance (concentration: 4mM),NP40-soluble protein abundance (concentration: 6mM),NP40-soluble protein abundance (concentration: 8mM),NP40-soluble protein abundance (concentration: 10mM)
M0R3D4 and related entries (UniProt Q9UI14),0.981 ± 0.048,1.01 ± 0.022,1.01 ± 0.014,0.948 ± 0.051,0.995 ± 0.058,0.984 ± 0.095
UQCRQ (UniProt O14949),0.958 ± 0.083,0.903 ± 0.04,0.882 ± 0.079,0.829 ± 0.066,0.938 ± 0.074,0.823 ± 0.16
STX6 (UniProt O43752),0.973 ± 0.049,0.97 ± 0.051,0.989 ± 0.032,0.943 ± 0.042,0.962 ± 0.01,0.944 ± 0.044
TOR1B (UniProt O14657),0.96 ± 0.036,0.954 ± 0.02,0.935 ± 0.044,0.885 ± 0.055,0.8724 ± 0.0086,0.947 ± 0.026
IGF2BP3 (UniProt O00425),0.97 ± 0.034,0.959 ± 0.031,0.916 ± 0.029,0.967 ± 0.044,0.916 ± 0.031,0.916 ± 0.036
UniProt O60271 and related entries,0.953 ± 0.039,0.954 ± 0.031,0.919 ± 0.035,0.971 ± 0.033,0.929 ± 0.02,0.944 ± 0.012
ARPC5 (UniProt O15511),0.928 ± 0.13,0.908 ± 0.13,0.886 ± 0.1,0.95 ± 0.15,0.889 ± 0.066,0.812 ± 0.12
UniProt O60232,0.939 ± 0.066,0.951 ± 0.079,0.957 ± 0.017,0.983 ± 0.14,0.931 ± 0.033,0.892 ± 0.067
UniProt O00148,1.01 ± 0.028,1 ± 0.018,1.006 ± 0.0097,0.997 ± 0.07,1.05 ± 0.025,1.04 ± 0.041
PSMD3 (UniProt O43242),0.923 ± 0.068,0.874 ± 0.033,0.858 ± 0.03,0.815 ± 0.017,0.883 ± 0.037,0.857 ± 0.048
PPM1G (UniProt O15355),0.947 ± 0.05,0.947 ± 0.032,0.901 ± 0.022,0.981 ± 0.038,0.888 ± 0.033,0.9013 ± 0.0062
UniProt O43390 and related entries,1.06 ± 0.062,0.969 ± 0.11,1.06 ± 0.035,1.05 ± 0.11,1.12 ± 0.14,1.24 ± 0.15
UniProt O60293 and related entries,1.06 ± 0.057,1.09 ± 0.071,1.1 ± 0.064,1.14 ± 0.12,1.09 ± 0.098,1.12 ± 0.085
PIK3R2 (UniProt O00459),1.12 ± 0.24,1.08 ± 0.2,0.996 ± 0.12,1.15 ± 0.11,0.943 ± 0.16,0.99 ± 0.041
UniProt O00716-2,0.975 ± 0.049,1.02 ± 0.023,0.988 ± 0.076,1.06 ± 0.02,0.971 ± 0.086,1.03 ± 0.072
SH3BP5 (UniProt O60239),0.971 ± 0.025,0.918 ± 0.053,0.954 ± 0.049,0.974 ± 0.02,0.926 ± 0.043,0.885 ± 0.03
ARPC1B (UniProt O15143),0.985 ± 0.024,0.984 ± 0.036,0.948 ± 0.038,0.971 ± 0.026,0.953 ± 0.014,0.944 ± 0.034
UniProt O14775-2|O14775-3,0.882 ± 0.012,0.964 ± 0.038,0.98 ± 0.025,0.987 ± 0.069,0.882 ± 0.02,0.903 ± 0.058
KPNA3 (UniProt O00505),1.05 ± 0.074,1.07 ± 0.058,1.01 ± 0.066,1.07 ± 0.069,1.02 ± 0.11,1.03 ± 0.042
PAPSS1 (UniProt O43252),0.989 ± 0.059,0.988 ± 0.043,0.959 ± 0.044,0.949 ± 0.054,0.987 ± 0.029,0.948 ± 0.04

Target,NP40-soluble protein abundance (concentration: 1mM),NP40-soluble protein abundance (concentration: 2mM),NP40-soluble protein abundance (concentration: 4mM),NP40-soluble protein abundance (concentration: 6mM),NP40-soluble protein abundance (concentration: 8mM),NP40-soluble protein abundance (concentration: 10mM)
PHGDH (UniProt O43175),0.921 ± 0.062,0.94 ± 0.031,0.913 ± 0.026,0.963 ± 0.024,0.904 ± 0.025,0.905 ± 0.021
UniProt O43929,1.1 ± 0.13,1.05 ± 0.064,1.07 ± 0.046,1 ± 0.11,1.09 ± 0.036,1.05 ± 0.046
UniProt O00471 and related entries,0.975 ± 0.022,0.977 ± 0.013,0.9468 ± 0.0071,0.951 ± 0.012,0.963 ± 0.016,0.978 ± 0.017
UniProt O14880 and related entries,1.07 ± 0.039,1.1 ± 0.096,1 ± 0.08,1.07 ± 0.1,1.06 ± 0.037,1.05 ± 0.088
UniProt O43504,1 ± 0.11,0.941 ± 0.098,0.966 ± 0.088,1.04 ± 0.077,0.962 ± 0.031,0.878 ± 0.11
XPO1 (UniProt O14980),0.987 ± 0.11,0.977 ± 0.076,0.947 ± 0.065,0.905 ± 0.1,0.973 ± 0.046,0.961 ± 0.063
UniProt O14733 and related entries,1.12 ± 0.049,1.15 ± 0.05,1.13 ± 0.037,1.07 ± 0.047,1.06 ± 0.06,1.1 ± 0.042
TIMM44 (UniProt O43615),0.95 ± 0.034,0.954 ± 0.032,0.946 ± 0.028,0.954 ± 0.041,0.954 ± 0.043,0.946 ± 0.042
UBFD1 (UniProt O14562),0.963 ± 0.068,0.943 ± 0.08,0.931 ± 0.049,0.96 ± 0.049,0.926 ± 0.041,0.9 ± 0.018
PRPF3 (UniProt O43395),1.05 ± 0.041,1.05 ± 0.054,1.11 ± 0.032,1.18 ± 0.065,1.22 ± 0.052,1.28 ± 0.04
UniProt O43427 and related entries,1.09 ± 0.14,1.05 ± 0.058,1.05 ± 0.061,0.962 ± 0.097,1.1 ± 0.048,1.06 ± 0.071
NPC1 (UniProt O15118),0.988 ± 0.036,1.01 ± 0.043,0.988 ± 0.023,0.947 ± 0.049,0.9529 ± 0.0063,0.926 ± 0.072
M0QZ12 and related entries (UniProt Q96CP6),1.02 ± 0.091,0.99 ± 0.14,1.01 ± 0.072,1.01 ± 0.17,0.966 ± 0.14,1.01 ± 0.06
UniProt O15265 and related entries,1.09 ± 0.15,1.06 ± 0.1,1.11 ± 0.087,1.14 ± 0.11,1.12 ± 0.1,1.3 ± 0.14
UniProt O15446 and related entries,0.888 ± 0.05,0.951 ± 0.012,1.01 ± 0.095,1.04 ± 0.039,1.04 ± 0.11,1.02 ± 0.05
UniProt O43663 and related entries,1.07 ± 0.034,1.06 ± 0.031,1.12 ± 0.031,1.12 ± 0.035,1.13 ± 0.04,1.1 ± 0.023
UniProt O15371 and related entries,1.03 ± 0.049,1.09 ± 0.051,1.2 ± 0.051,1.27 ± 0.046,1.45 ± 0.034,1.57 ± 0.057
UniProt O43829,1.05 ± 0.041,1.06 ± 0.034,1.02 ± 0.08,1.07 ± 0.026,1.04 ± 0.043,1.06 ± 0.026
GAK (UniProt O14976),0.987 ± 0.016,1 ± 0.017,1.05 ± 0.044,1.05 ± 0.013,1.06 ± 0.029,1.05 ± 0.016
UniProt O43278 and related entries,0.966 ± 0.04,0.972 ± 0.04,0.974 ± 0.027,0.961 ± 0.02,0.945 ± 0.05,0.932 ± 0.038

# No new results follow: entries from further up.
Target,NP40-soluble protein abundance (concentration: 1mM),NP40-soluble protein abundance (concentration: 2mM),NP40-soluble protein abundance (concentration: 4mM),NP40-soluble protein abundance (concentration: 6mM),NP40-soluble protein abundance (concentration: 8mM),NP40-soluble protein abundance (concentration: 10mM)
XPO1 (UniProt O14980),0.987 ± 0.11,0.977 ± 0.076,0.947 ± 0.065,0.905 ± 0.1,0.973 ± 0.046,0.961 ± 0.063
UniProt O14733 and related entries,1.12 ± 0.049,1.15 ± 0.05,1.13 ± 0.037,1.07 ± 0.047,1.06 ± 0.06,1.1 ± 0.042
TIMM44 (UniProt O43615),0.95 ± 0.034,0.954 ± 0.032,0.946 ± 0.028,0.954 ± 0.041,0.954 ± 0.043,0.946 ± 0.042
UBFD1 (UniProt O14562),0.963 ± 0.068,0.943 ± 0.08,0.931 ± 0.049,0.96 ± 0.049,0.926 ± 0.041,0.9 ± 0.018
PRPF3 (UniProt O43395),1.05 ± 0.041,1.05 ± 0.054,1.11 ± 0.032,1.18 ± 0.065,1.22 ± 0.052,1.28 ± 0.04
UniProt O43427 and related entries,1.09 ± 0.14,1.05 ± 0.058,1.05 ± 0.061,0.962 ± 0.097,1.1 ± 0.048,1.06 ± 0.071
NPC1 (UniProt O15118),0.988 ± 0.036,1.01 ± 0.043,0.988 ± 0.023,0.947 ± 0.049,0.9529 ± 0.0063,0.926 ± 0.072
M0QZ12 and related entries (UniProt Q96CP6),1.02 ± 0.091,0.99 ± 0.14,1.01 ± 0.072,1.01 ± 0.17,0.966 ± 0.14,1.01 ± 0.06
UniProt O15265 and related entries,1.09 ± 0.15,1.06 ± 0.1,1.11 ± 0.087,1.14 ± 0.11,1.12 ± 0.1,1.3 ± 0.14
UniProt O15446 and related entries,0.888 ± 0.05,0.951 ± 0.012,1.01 ± 0.095,1.04 ± 0.039,1.04 ± 0.11,1.02 ± 0.05
UniProt O43663 and related entries,1.07 ± 0.034,1.06 ± 0.031,1.12 ± 0.031,1.12 ± 0.035,1.13 ± 0.04,1.1 ± 0.023
UniProt O15371 and related entries,1.03 ± 0.049,1.09 ± 0.051,1.2 ± 0.051,1.27 ± 0.046,1.45 ± 0.034,1.57 ± 0.057
UniProt O43829,1.05 ± 0.041,1.06 ± 0.034,1.02 ± 0.08,1.07 ± 0.026,1.04 ± 0.043,1.06 ± 0.026
GAK (UniProt O14976),0.987 ± 0.016,1 ± 0.017,1.05 ± 0.044,1.05 ± 0.013,1.06 ± 0.029,1.05 ± 0.016
UniProt O43278 and related entries,0.966 ± 0.04,0.972 ± 0.04,0.974 ± 0.027,0.961 ± 0.02,0.945 ± 0.05,0.932 ± 0.038

# Following part.

Target,NP40-soluble protein abundance (concentration: 1mM),NP40-soluble protein abundance (concentration: 2mM),NP40-soluble protein abundance (concentration: 4mM),NP40-soluble protein abundance (concentration: 6mM),NP40-soluble protein abundance (concentration: 8mM),NP40-soluble protein abundance (concentration: 10mM)
TIMM23 (UniProt O14925),0.913 ± 0.047,0.943 ± 0.02,0.943 ± 0.016,0.883 ± 0.086,0.917 ± 0.015,0.931 ± 0.019
GMFG (UniProt O60234),1.04 ± 0.041,0.998 ± 0.063,1.04 ± 0.095,0.984 ± 0.067,1.04 ± 0.1,0.945 ± 0.078
AP3B1 (UniProt O00203),0.96 ± 0.024,0.992 ± 0.042,0.947 ± 0.036,0.919 ± 0.023,0.933 ± 0.048,0.984 ± 0.067
PRPSAP2 (UniProt O60256),1.08 ± 0.046,0.982 ± 0.025,1.02 ± 0.059,0.976 ± 0.084,1.04 ± 0.074,1 ± 0.06
NDUFS4 (UniProt O43181),0.967 ± 0.039,0.945 ± 0.033,0.905 ± 0.017,0.963 ± 0.11,0.918 ± 0.062,0.909 ± 0.037
UniProt O43148 and related entries,1.03 ± 0.046,1.02 ± 0.05,1.01 ± 0.032,1.05 ± 0.04,1.03 ± 0.061,1.02 ± 0.025
M0R2A0 and related entries (UniProt Q5UCC4),0.983 ± 0.058,0.979 ± 0.052,0.923 ± 0.072,0.963 ± 0.072,0.942 ± 0.092,0.964 ± 0.08
SCD (UniProt O00767),0.93 ± 0.07,0.9234 ± 0.0079,0.894 ± 0.026,0.868 ± 0.067,0.903 ± 0.019,0.935 ± 0.016
UniProt O14757,0.997 ± 0.056,0.983 ± 0.044,0.983 ± 0.027,0.929 ± 0.077,0.973 ± 0.031,0.981 ± 0.074
KRIT1 (UniProt O00522),1.05 ± 0.06,1.04 ± 0.022,1.09 ± 0.1,1.09 ± 0.028,1.09 ± 0.077,1.11 ± 0.13
UniProt O14924 and related entries,1.11 ± 0.42,1.02 ± 0.047,0.929 ± 0.078,1.16 ± 0.35,1.28 ± 0.44,1.23 ± 0.44
UniProt O00409 and related entries,1.05 ± 0.058,1.01 ± 0.15,0.995 ± 0.087,1.06 ± 0.15,0.949 ± 0.1,1.01 ± 0.18
UniProt O43164 and related entries,0.919 ± 0.057,0.955 ± 0.045,0.949 ± 0.068,0.951 ± 0.068,0.917 ± 0.05,0.995 ± 0.065
PRMT5 (UniProt O14744),1.03 ± 0.049,0.986 ± 0.033,0.96 ± 0.04,0.955 ± 0.015,1.006 ± 0.0091,0.981 ± 0.044
TRAPPC3 (UniProt O43617),0.959 ± 0.017,0.953 ± 0.018,0.95 ± 0.013,0.882 ± 0.033,0.945 ± 0.019,0.873 ± 0.087
SMARCA5 (UniProt O60264),1.17 ± 0.028,1.2 ± 0.024,1.2 ± 0.03,1.23 ± 0.016,1.27 ± 0.018,1.26 ± 0.032
TRAF5 (UniProt O00463),1.04 ± 0.072,1.05 ± 0.03,1.04 ± 0.06,1.05 ± 0.066,1.03 ± 0.041,1.02 ± 0.063
UniProt O43822 and related entries,1.03 ± 0.021,1.02 ± 0.046,1.02 ± 0.07,1.02 ± 0.078,1.03 ± 0.067,1.03 ± 0.044
RNF13 (UniProt O43567),0.94 ± 0.055,0.99 ± 0.029,0.978 ± 0.039,0.982 ± 0.078,0.919 ± 0.012,0.948 ± 0.031
DENR (UniProt O43583),0.941 ± 0.057,0.92 ± 0.027,0.913 ± 0.018,0.886 ± 0.037,0.895 ± 0.037,0.848 ± 0.086
